Our source for the binding values is patent US20210246195A1.

Protein sequences, listed by entry. Tags and fused reporters are not part of them. Residues count along the entry.
UniProt P43238, residues 26-626: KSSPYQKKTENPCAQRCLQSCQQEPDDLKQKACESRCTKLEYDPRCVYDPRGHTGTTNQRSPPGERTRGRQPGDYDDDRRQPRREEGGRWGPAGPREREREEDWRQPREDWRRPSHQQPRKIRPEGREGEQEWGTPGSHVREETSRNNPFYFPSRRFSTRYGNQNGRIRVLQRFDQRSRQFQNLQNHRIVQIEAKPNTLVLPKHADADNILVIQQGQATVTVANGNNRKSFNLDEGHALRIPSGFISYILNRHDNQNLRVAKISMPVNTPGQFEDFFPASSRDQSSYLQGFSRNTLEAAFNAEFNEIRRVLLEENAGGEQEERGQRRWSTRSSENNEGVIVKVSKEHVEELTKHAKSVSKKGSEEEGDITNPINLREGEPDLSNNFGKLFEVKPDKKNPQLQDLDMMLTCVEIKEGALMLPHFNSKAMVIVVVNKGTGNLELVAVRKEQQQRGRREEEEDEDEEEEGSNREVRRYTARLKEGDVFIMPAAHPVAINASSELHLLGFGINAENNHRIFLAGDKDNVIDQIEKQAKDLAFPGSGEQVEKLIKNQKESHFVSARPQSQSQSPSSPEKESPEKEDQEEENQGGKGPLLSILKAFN

Assay [1] concerns the target Ara h 1 (purified natural peanut allergen) (Arachis hypogaea) (UniProt P43238). The assay is described as follows: indirect ELISA, OD heat map (scale 0.0-3.0).
For assay [2] the target is unchanged. Put plainly: indirect ELISA. (In general: An ELISA detects its analyte on a solid surface through an enzyme-linked reagent.)

These are yes or no findings as the source states them, for the method shown. Some entries that bind do so weakly or less than the wild type.

B1: PA12P1C07 (antibody, human IgG1, V domains shown)
VH: QVQLEESGGGVVQPGKSLRLSCVASAFTFKRFAMHWVRQAPGKGLEWVAVISDNGLREDYEDSVKGRFTISRDNSKDTLYLQMNSLRPEDTAIYYCAKVLDYSEYSLYFGMDVWGQGTTVLVSS
VL: EIVLTQSPAILSLSPGDRATLSCRTSQTVNSNFLAWYQQKPGQAPRLLIYGASRRAIDIPDRFTGSGSGTEFTLTIARLEPEDFAVYSCQHYSDSPPYTFGQGTKLEIK
In the case of B1, the binding result in assay [1] and in assay [2] was “binds” in each case.

B2: PA12P3D08 (antibody, human IgG1, V domains shown)
VH: QVQLVESGGGVVQPGKSLRLSCAASAFTFRRFAMHWVRQAPGKGLEWVAVISDNGLREDYEDSVKGRFTISRDNSQNTLYLQMNGLRAEDTAVYYCAKVLDYNEYSLYFGMDVWGQGTTVTVSS
VL: EVVLTQSPATLSLSPGERATLSCRTSQAISNNFLAWYQQRPGQPPRLLIYASSRRATDTPDRFTGSGSGTDFTLTITRLEPEDFAVYFCQYYSDSPPYTFGPGTKLEIK
Consider B2, for which the binding entry in assay [1] and in assay [2] was “binds” in each case.

B3: PA13P1H08 variant rCDR1-N (antibody, human IgG1, V domains shown)
VH: QVQLVNSGGGVVQPGRSLRLSCVASGFTFSSYGIHWVRQAPGKGLEWVAVISNDGEKSESADSVKGRFTPSRDNSKNTVYLQMNNLRVEDTAVYYCAKVLDYSRYSYYYGMDVWGQGTTVIVSS
VL: EIVLTQSPGTLSLSPGGRGTLSCRTSQTINNAHLAWYQHKPGQAPRLLIYGSSERATGVPDRFSGSGSGSDFTLTISSLEAEDFAVYYCQHYGRSPPYTFGPGTKLDIK
With B3, the binding entry in assay [1] is given as “binds”.

B4: PA13P1H08 variant rCDR2-N (antibody, human IgG1, V domains shown)
VH: QVQLVNSGGGVVQPGRSLRLSCVASGFTFSTFGIHWVRQAPGKGLEWVAVISYDGSNKESADSVKGRFTPSRDNSKNTVYLQMNNLRVEDTAVYYCAKVLDYSRYSYYYGMDVWGQGTTVIVSS
VL: EIVLTQSPGTLSLSPGGRGTLSCRTSQTINNAHLAWYQHKPGQAPRLLIYGSSERATGVPDRFSGSGSGSDFTLTISSLEAEDFAVYYCQHYGRSPPYTFGPGTKLDIK
B4: the binding entry in assay [1] is recorded as “binds”.

B5: PA13P1H08 variant rFWRs-N (antibody, human IgG1, V domains shown)
VH: QVQLVESGGGVVQPGRSLRLSCAASGFTFSTFGMHWVRQAPGKGLEWVAVISNDGEKSYYADSVKGRFTISRDNSKNTLYLQMNSLRAEDTAVYYCAKVLDYSRYSYYYGMDVWGQGTTVTVSS
VL: EIVLTQSPGTLSLSPGGRGTLSCRTSQTINNAHLAWYQHKPGQAPRLLIYGSSERATGVPDRFSGSGSGSDFTLTISSLEAEDFAVYYCQHYGRSPPYTFGPGTKLDIK
For B5, the binding result in assay [1] was “binds”.
